The text below walks through data of PMC6369847 (International Journal of Nanomedicine, 2019).

≈ marks a conversion by molar mass, not a printed value.

In this experiment the test system is A549 cells. The experiment in a line: Cytotoxicity test by MTT assay, A549. Type of experiment: cell-based. Conditions: Homo sapiens, A549, 48 h.

What is called IC50 is the point on the concentration scale where inhibition reaches its midpoint. `CC(=O)O[C@H]1C(=O)[C@@]2(C)[C@H]([C@H](OC(=O)c3ccccc3)[C@]3(O)C[C@H](OC(=O)[C@H](O)[C@@H](NC(=O)c4ccccc4)c4ccccc4)C(C)=C1C3(C)C)[C@]1(OC(C)=O)CO[C@@H]1C[C@@H]2O` [PTX, Paclitaxel] gave an IC50 of 1.26 µg/mL (≈ 1.48 µM).
